For one substance, binding results are on record in publication PMC12891040.

Results are given in words; binding and its absence hold for the method and conditions named. In cells and extracts the contact can be indirect. Binding calls can cover weak binding; strength is not graded here.

The experiment concerns the target T1, Arabidopsis nuclear protein GLK1-cEYFP (Arabidopsis) (UniProt Q9SIV3).
T1 sequence: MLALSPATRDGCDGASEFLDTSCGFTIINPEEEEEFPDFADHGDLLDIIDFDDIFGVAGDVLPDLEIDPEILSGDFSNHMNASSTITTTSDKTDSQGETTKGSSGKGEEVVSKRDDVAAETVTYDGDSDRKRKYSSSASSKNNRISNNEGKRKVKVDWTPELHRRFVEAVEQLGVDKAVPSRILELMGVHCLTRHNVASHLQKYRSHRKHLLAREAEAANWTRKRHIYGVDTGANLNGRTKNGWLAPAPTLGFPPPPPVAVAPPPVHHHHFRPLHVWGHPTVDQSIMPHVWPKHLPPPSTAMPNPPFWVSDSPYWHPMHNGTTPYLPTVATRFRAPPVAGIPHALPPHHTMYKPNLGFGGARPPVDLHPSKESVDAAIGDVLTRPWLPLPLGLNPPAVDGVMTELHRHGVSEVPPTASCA
Kind of experiment: split reporter; BiFC with nEYFP and cEYFP fusions transiently coexpressed in N. benthamiana leaf epidermal cells; confocal microscopy.

Turning to Arabidopsis BPG4-nEYFP, the binding result is “binds”.
